Assay results published in patent US20070087364A1, “In vitro erythroid micronucleus assay for genotoxicity” (Massachusetts Institute of Technology, priority 2005, published 2007).
For at least one compound, name, drawing or mass did not settle the structure.

How the values were obtained:
Lin^− bone marrow cells [1] = experiment: erythropoietic growth of Lin− bone marrow quantified by flow cytometry (Ter-119/CD71) and total cell counts; format: cell-based, mouse; details: preliminary flow cytometric studies, Lin− BM from C57BL/6J mice
Method: FIG. 13 is a bar graph of data obtained from experiments performed to determined the effect of Epo on the erythropoietic growth of Lin− bone marrow cells. Lin^− bone marrow cells were cultured for 1 day in media containing serum along with Epo at variable concentrations. Epo was removed from the culture media at the end of 1 day, and culture was continued for 2 more days in media with serum. At the end of the third day, the resulting populations were removed from culture and erythropoietic growth was quantified as the product of total cell counts and flow cytometric region fractions. Specifically, erythroid-specific growth at two late stages was calculated for each culture by taking the product of the total cell count and the fraction of the population found to have the indicated surface phenotype (determined by flow cytometry). […]
Studies were conducted by stimulating Lin^− mouse BM with specifically defined media formulations for 24 hours before replacing the medium to a minimal erythroid-differentiation medium (EDM) and culturing for an additional 2-3 days. […] Upon harvest, the number of late-stage erythroid cells and enucleated erythrocytes produced over the culture period was analyzed. […] More rigorous quantification, via histological analysis, was then employed in a more detailed analysis to generate FIGS. 11, 12, 14 and 16. […]

Lin^− bone marrow cells [2] = experiment: PCE growth of Lin− bone marrow by acridine orange histology, fractional-factorial design with regression; format: cell-based, mouse; details: primary and secondary effects, untreated cultures
Method: (FIG. 14A) Lin^− bone marrow cells were cultured for 1 day in media containing serum and various combinations of soluble growth factors as listed on the abscissa; these specific 6-factor combinations constitute an orthogonal fractional-factorial design (also represented in Table 1). After 1 day, all soluble erythropoietic growth factors were removed and the cells were cultured for either 2 or 3 additional days in medium with serum. At harvest, the cells were removed from culture and late erythropoietic growth was quantified. For each culture, PCE numbers were calculated by taking the product of the total cell count and the PCE fraction of the population as determined by differential cell counting after staining with acridine orange (>2000 cells scored per culture). […] (FIG. 14B) Culture methods that yielded similar populations at harvest were grouped into subsets (α, β, γ, and δ); growth characteristics for these subsets were quantified and representative micrographs were acquired. […]
Furthermore, some variability between various Lin^− BM isolations was observed over the course of preliminary flow cytometric studies. […] In this study, flow cytometry was replaced by histological analysis to provide more rigorous quantification of a population's PCE content. […]

For C[C@@H]1C[C@H]2[C@@H]3CCC4=CC(=O)C=C[C@]4(C)[C@@]3(F)[C@@H](O)C[C@]2(C)[C@@]1(O)C(=O)CO [Dex, Dexamethasone, reference compound], the “effect on erythropoietic growth (erythropoietic flow cytometry), in words” value (Lin^− bone marrow cells [1]) was “had an effect on erythroid cell numbers” and the “effect on PCE production / erythropoietic growth, statistical analysis of FIG. 12” value (Lin^− bone marrow cells [2]) was “did not have a statistically significant effect”.
